In PubChem BioAssay AID1347075 (National Center for Advancing Translational Sciences (NCATS), 2019):
Among all 400,000 compounds or so, about 5,500 (1.4%) were called active. The inconclusive results got no clear call from the source; some entries with a clear call stand among them for comparison. Calls follow the shape of the dose curve; as a rule, active = well fitted cell-killing curve with a large enough effect; inconclusive = small, poorly fitted or top-dose-only effect, or effect the other way; inactive = flat fitted curve, though single readings scatter. Where the call is inconclusive, the potency comes from a doubtful curve fit.

Assay: qHTS assay for MDR1-selective chemotherapeutics: Primary screen using the parental adenocarcinoma cell KB-3-1; also: nearly all actives have a fitted effect of over 60% in size
Conditions: KB-3-1 viability, CellTiter-Glo ATP luminescence, 72 h; activity change, negative = cytotoxic: at 46.1 µM (top of the series)
How it was run: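 72 h, 37 °C compound treatment of KB-3-1 parental cells; CellTiter-Glo added, 10 min, luminescence read. Data corrected against DMSO-only plates and normalized before curve fitting.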
% is scaled to controls: 0 for no effect and ±100 for the full control effect; potency is read from the fitted curve at half-maximal effect.

**Q.** For CC(C)CCNC(=O)C(CC(C)C)N(Cc1ccc2c(c1)OCO2)C(=O)c1snc(C(N)=O)c1N (stereo not given), which “activity change, negative = cytotoxic” value is on record?
**A.** inactive: -14%

**Q.** Which Potency does the source give for CN=C1S/C(=C\c2ccc(N3CCOCC3)c(F)c2)C(=O)N1C here?
**A.** inconclusive: 25.9 µM [cytotoxic, single point]

**Q.** For COc1cc2[nH]c(=S)n(C3CCCC3)c(=O)c2cc1OC, which “activity change, negative = cytotoxic” value is on record?
**A.** inactive: -25.8%

**Q.** Which Potency does the source give for CC(C)(C)OC(=O)N1CCC2(CC1)Oc1ccc(F)cc1C(=O)C21CC(c2ccccc2)=NO1 (stereo not given) here?
**A.** inconclusive: 32.6 µM [cytotoxic, single point]

**Q.** Which Potency does the source give for Cc1cccc(NC(=S)NNC(=O)c2ccccc2OC(F)F)c1 here?
**A.** inconclusive: 25.9 µM [cytotoxic, partial curve, poor fit]

**Q.** Which Potency does the source give for c1ccc(-c2noc(-c3ccc4ccccc4c3)n2)nc1 here?
**A.** inconclusive: 29.1 µM [cytotoxic, single point]

**Q.** For O=C(Cc1c(F)cccc1Cl)Nc1ccc(S(=O)(=O)Nc2nccs2)cc1, which “activity change, negative = cytotoxic” value is on record?
**A.** inactive: 2.31%

**Q.** Which Potency does the source give for COc1ccc(OC)c(/C=C/c2sc3ccccc3[n+]2C)c1 here?
**A.** inconclusive: 1840 µM [cytotoxic, full curve, poor fit]

**Q.** For Nc1ccc(Br)c[n+]1Cc1cccc2cccnc12, which activity change, negative = cytotoxic is on record?
**A.** inconclusive: -32.9% [cytotoxic]

**Q.** Which Potency does the source give for CC1(C(=O)NCc2ccccc2Br)CCN1C(=O)C1(c2ccc(Cl)cc2)CC1 (stereo not given) here?
**A.** inconclusive: 18.4 µM [cytotoxic, single point]

**Q.** With O=C(COc1cccc2ccccc12)N1c2ccccc2CCc2ccccc21 as the compound, how does the Potency read?
**A.** inconclusive: 23.1 µM [cytotoxic, single point]

**Q.** With COc1ccc(/C=C2\C(=O)N(c3c(Cl)cc(Cl)cc3Cl)N=C2NC(=O)c2cccc([N+](=O)[O-])c2)cc1 as the compound, how does the Potency read?
**A.** inconclusive: 29.1 µM [cytotoxic, single point]

**Q.** With CCOn1c(-n2nc(C)cc2C)nc2ccccc2c1=O as the compound, how does the “activity change, negative = cytotoxic” value read?
**A.** inactive: 0%

**Q.** Which Potency does the source give for COc1ccc(CCNC(=O)c2ccc(NS(=O)(=O)c3ccc4[nH]c(=O)[nH]c4c3)cc2)cc1OC here?
**A.** inconclusive: 29.1 µM [rising, single point]

**Q.** With CCN(CC)C(=O)c1nc[nH]c1C(=O)N1CCN(c2ccccc2)CC1 as the compound, how does the Potency read?
**A.** inconclusive: 29.1 µM [cytotoxic, single point]

**Q.** Which Potency does the source give for CN(Cc1cn(C)c2ccccc12)C(=S)Nc1cc(F)cc(F)c1 here?
**A.** inconclusive: 23.1 µM [cytotoxic, single point]

**Q.** With CCN(C[C@H]1N[C@@](C)(C(=O)OC)[C@H]2C(=O)N(C)C(=O)[C@@H]12)S(=O)(=O)c1ccc(-c2ccccc2)cc1 as the compound, how does the activity change, negative = cytotoxic read?
**A.** inconclusive: -9.54%

**Q.** Which Potency does the source give for Cn1c(Sc2ccc(Br)cc2)c(C=O)c2ccccc21 here?
**A.** inconclusive: 29.1 µM [cytotoxic, single point]

**Q.** For COc1ccc(CN2C(=O)C(C)Nc3ncnc(N4CCOCC4)c32)cc1 (stereo not given), which Potency is on record?
**A.** inconclusive: 11.6 µM [cytotoxic, partial curve, poor fit]

**Q.** Which “activity change, negative = cytotoxic” value does the source give for COc1ccc(CNc2ccc([N+](=O)[O-])cc2C)cc1 here?
**A.** inactive: -11.4%

**Q.** Which Potency does the source give for Cc1ccc(-c2csc(N3CCN(CCCn4c(-c5ccncc5)nc5ccccc54)CC3)n2)cc1 here?
**A.** inconclusive: 29.1 µM [cytotoxic, single point]

**Q.** With Cc1ccc(-n2c(C)nc3c(cnn3-c3ccccc3Cl)c2=O)cc1C as the compound, how does the Potency read?
**A.** inconclusive: 18.4 µM [cytotoxic, single point]

**Q.** For CNc1nc(Nc2ccc([N+](=O)[O-])cc2)nc(OCC(F)(F)F)n1, which Potency is on record?
**A.** inconclusive: 3.66 µM [rising, full curve]

**Q.** Which Potency does the source give for O=C(Nc1nc2ccccc2s1)c1cc(-c2ccccc2)nn1-c1ccccc1 here?
**A.** inconclusive: 18.4 µM [cytotoxic, single point]

**Q.** For N#C/C(=C/C=C/c1ccccc1)C(=O)Nc1ccccc1, which “activity change, negative = cytotoxic” value is on record?
**A.** inactive: -9.57%

**Q.** For Cc1ccccc1-c1nc2ccc(Cl)cc2c(=O)n1O, which “activity change, negative = cytotoxic” value is on record?
**A.** inactive: -6.11%

**Q.** Which Potency does the source give for Cc1nc2c(OCc3ccc(Cl)cc3)cccn2c1N(C)C(=O)CCC1CCCC1 here?
**A.** inconclusive: 29.1 µM [cytotoxic, single point]

**Q.** Which Potency does the source give for Cc1cccc(N2CCN(C(=O)c3ccc(N4CCCC4=O)cc3)CC2)c1C here?
**A.** inconclusive: 29.1 µM [cytotoxic, single point]

**Q.** Which Potency does the source give for CCN1CCC(CNCc2cn(-c3ccc(OC)cc3)nc2-c2ccccc2Cl)C1 (stereo not given) here?
**A.** inconclusive: 29.1 µM [cytotoxic, single point]

**Q.** With CN1CCc2cccc3c2[C@@H]1Cc1ccc(O)c(O)c1-3 as the compound, how does the Potency read?
**A.** inconclusive: 32.6 µM [cytotoxic, partial curve, poor fit]

**Q.** Which Potency does the source give for CCCSc1nnc2n(-c3ccc(OC)cc3)c(=O)c3c4c(sc3n12)COC(C(C)C)C4 (stereo not given) here?
**A.** inconclusive: 20.6 µM [cytotoxic, single point]

**Q.** For COc1cc(C2C(C#N)=C(N)Oc3n[nH]c(C)c32)ccc1OC(=O)c1ccccc1 (stereo not given), which “activity change, negative = cytotoxic” value is on record?
**A.** inactive: -2.43%

**Q.** Which “activity change, negative = cytotoxic” value does the source give for Cn1nccc1C(=O)Nn1cnnc1 here?
**A.** inactive: 1.71%

**Q.** With CCOCCCNc1ncnc2c1[nH]c1ccccc12 as the compound, how does the Potency read?
**A.** inconclusive: 29.1 µM [cytotoxic, single point]

**Q.** For CC1Sc2ccc(S(=O)(=O)CCC(=O)N3CCCCC3)cc2NC1=O (stereo not given), which Potency is on record?
**A.** inconclusive: 3.66 µM [cytotoxic, full curve]

**Q.** Which Potency does the source give for CCCC[C@@H]1CN=C(N)N1CCc1cc(C(F)(F)F)cc(C(F)(F)F)c1 here?
**A.** inconclusive: 18.4 µM [cytotoxic, single point]

**Q.** For COc1ccc2sc(N(CCN(C)C)C(=O)/C=C/c3cccs3)nc2c1, which Potency is on record?
**A.** inconclusive: 29.1 µM [cytotoxic, partial curve, poor fit]

**Q.** Which “activity change, negative = cytotoxic” value does the source give for Cc1ccc(NC(=O)C(=O)NCCCN2CCOCC2)cc1C here?
**A.** inactive: 3.31%

**Q.** For O=C(CN1c2ccccc2Sc2ccccc21)N/N=C/c1ccc([N+](=O)[O-])cc1, which Potency is on record?
**A.** inconclusive: 29.1 µM [cytotoxic, single point]

**Q.** With COc1ccccc1C1CCN(C(=O)c2ccc(Cl)cc2)CC1 as the compound, how does the “activity change, negative = cytotoxic” value read?
**A.** inactive: -3.31%

**Q.** Which “activity change, negative = cytotoxic” value does the source give for NC(=O)COC(=O)c1cc([N+](=O)[O-])ccc1NCCO here?
**A.** inactive: 5.15%

**Q.** Which Potency does the source give for O=C1C=C(c2cccc(Cl)c2O)C[C@@H](c2ccc3c(c2)OCO3)C1 here?
**A.** inconclusive: 29.1 µM [rising, single point]

**Q.** Which Potency does the source give for COc1ccc(CCNC(=O)c2c(C)nn(-c3ccc(F)cc3)c2-n2cccc2)c(OC)c1OC here?
**A.** inconclusive: 29.1 µM [cytotoxic, single point]

**Q.** Which Potency does the source give for COC(=O)c1sc2nc(C)c([N+](=O)[O-])c(C)c2c1N here?
**A.** inconclusive: 20.6 µM [cytotoxic, single point]

**Q.** For Cc1ccc(C(=O)N2NC(c3ccc(F)cc3)C3C(=O)N(c4ccc(C)c(C)c4)C(=O)C32)cc1 (stereo not given), which “activity change, negative = cytotoxic” value is on record?
**A.** inactive: -9.05%

**Q.** With Cc1cccc(NC(=O)Nc2ccccc2[N+](=O)[O-])n1 as the compound, how does the Potency read?
**A.** inconclusive: 20.6 µM [cytotoxic, single point]

**Q.** With COc1ccc(/C=C/C(=O)Nc2ccc(S(=O)(=O)N3CCOCC3)cc2)c(OC)c1 as the compound, how does the “activity change, negative = cytotoxic” value read?
**A.** inactive: -2.87%

**Q.** Which Potency does the source give for CCOc1ccc(CNC(=O)C2CCCN(S(=O)(=O)N(CC)c3ccc(OCC)cc3)C2)cc1 (stereo not given) here?
**A.** inconclusive: 18.4 µM [cytotoxic, single point]

**Q.** With O=C1[C@H](Oc2ccccc2)[C@@H](c2ccccc2)N1c1ccncc1 as the compound, how does the “activity change, negative = cytotoxic” value read?
**A.** inactive: 0%

**Q.** Which “activity change, negative = cytotoxic” value does the source give for CCOC(=O)c1c(-c2ccccc2Cl)csc1NC(=O)c1cc(S(=O)(=O)N2CCOCC2)ccc1C here?
**A.** inactive: -25.7%

**Q.** With O=C(COC(=O)c1c[nH]c2ccccc12)Nc1ccc([N+](=O)[O-])cc1 as the compound, how does the “activity change, negative = cytotoxic” value read?
**A.** inactive: 15.5%

**Q.** For Cc1ccc(S(=O)(=O)N2CCC(C(=O)Nc3ccc(Oc4ccccc4)cc3)CC2)cc1, which “activity change, negative = cytotoxic” value is on record?
**A.** inactive: -10.1%

**Q.** Which “activity change, negative = cytotoxic” value does the source give for O=C(NCCc1ccccc1)c1ccc2c(c1)CCN2S(=O)(=O)c1ccccc1 here?
**A.** inactive: -25.5%

**Q.** Which Potency does the source give for CN(CC(=O)Nc1ccccc1Cl)C(=O)COC(=O)c1nc(Cl)c(Cl)c(Cl)c1Cl here?
**A.** inconclusive: 16.4 µM [cytotoxic, single point]

**Q.** Which Potency does the source give for NC(Cc1ccccc1)c1csc(Nc2nncc3ccccc23)n1 (stereo not given) here?
**A.** inconclusive: 29.1 µM [cytotoxic, single point]

**Q.** Which Potency does the source give for Cc1cc(C)cc(NC(=O)CN2C(=O)CCc3cc(S(=O)(=O)N4CCCCC4)ccc32)c1 here?
**A.** inconclusive: 18.4 µM [cytotoxic, single point]

**Q.** Which “activity change, negative = cytotoxic” value does the source give for O=C(NCc1ccco1)C1CCCN1C(=O)Nc1ccc(Cl)cc1 (stereo not given) here?
**A.** inactive: 0.989%

**Q.** With Cc1ccc(CN2[C@H](C)[C@H](c3ccccc3)OCCS2(=O)=O)cc1 as the compound, how does the Potency read?
**A.** active: 23.1 µM

**Q.** With CNc1ncnc(Sc2nc(N)nc3nc[nH]c23)c1[N+](=O)[O-] as the compound, how does the Potency read?
**A.** inconclusive: 0.58 µM [cytotoxic, full curve, poor fit]

**Q.** Which “activity change, negative = cytotoxic” value does the source give for CCc1nnc(NC(=O)CCC(=O)N2CCN(Cc3ccc(Cl)cc3)CC2)s1 here?
**A.** inactive: -4.04%

**Q.** With CC(=O)c1cccc(N=C2NC(=O)CS2)c1 as the compound, how does the “activity change, negative = cytotoxic” value read?
**A.** inactive: -24.3%

**Q.** Which “activity change, negative = cytotoxic” value does the source give for CCCOc1ccc(-c2nc(N3CCN(CC)CC3)c3ccccc3n2)cc1 here?
**A.** inactive: 2.28%

**Q.** For COc1ccc(CNC(=O)c2cccc(S(=O)(=O)N3CCN(c4ccc(F)cc4)CC3)c2)cc1, which “activity change, negative = cytotoxic” value is on record?
**A.** inactive: -1.01%

**Q.** For Cc1[nH]c2ccccc2c1C(=O)COC(=O)c1ccc([N+](=O)[O-])s1, which Potency is on record?
**A.** inconclusive: 18.4 µM [cytotoxic, partial curve, poor fit]

**Q.** Which Potency does the source give for O=C(C1CCC(CNc2nc(=S)[nH]c3ccccc23)CC1)N1CCN(c2ccc(F)cc2)CC1 (stereo not given) here?
**A.** inconclusive: 18.4 µM [cytotoxic, single point]

**Q.** Which “activity change, negative = cytotoxic” value does the source give for Cc1cc(Br)ccc1NC(=O)CN(C)C(=O)c1ccc2ccccc2n1 here?
**A.** inactive: 19.3%

**Q.** With c1ccc(Nc2c(-c3ccco3)nc3ccccn23)cc1 as the compound, how does the “activity change, negative = cytotoxic” value read?
**A.** inactive: -2.11%

**Q.** For Cc1cccc(C)c1NC(=O)C(c1cccc2ccccc12)n1c(=O)c(-c2cc3ccccc3[nH]2)nc2ccccc21 (stereo not given), which “activity change, negative = cytotoxic” value is on record?
**A.** inactive: -7.7%

**Q.** For COc1cc(/C=C2\SC(=S)N(CC(=O)Nc3ccccn3)C2=O)cc(OC)c1OC, which Potency is on record?
**A.** inconclusive: 29.1 µM [cytotoxic, single point]

**Q.** For Cc1ccc(S(=O)(=O)N2CCCCC2CCNC(=O)C(=O)NCc2ccccc2C)cc1 (stereo not given), which Potency is on record?
**A.** inconclusive: 18.4 µM [cytotoxic, single point]
